In brackets after ≈: the same amount, converted by molar mass.

This note sets out measurements from patent publication US11168131B2, “Antibody molecule-drug conjugates and uses thereof” (priority 2015, dated 2021).

For the test, the system named is C. albicans. The test is described as follows: Minimal inhibitory concentration (MIC) assay, broth microdilution. It counts as cell-based. Conditions: C. albicans ATCC 90028; MIC control compound value. On the procedure:
On Day 1, all strains to be used in the assay were taken from −80° C. storage, thawed on ice, and subcultured to an appropriate agar plate using a 10 μl inoculating loop. All plates were placed at 37° C. overnight. Alternatively, strains can be subcultured from a fresh overnight agar plate or a refrigerated agar plate less than one week old.
All strains were subcultured to an appropriate agar plate using a 10 μl inoculating loop. All plates were placed at 37° C. overnight.
Mother plates were prepared for test compounds and standards. […] 20 μl diluent was placed in columns 2-12. […] Column 12 was used as a growth control.
Concentration ranges can also be varied depending on the efficacy of the compounds. […] The assay then adds 80 μl (as opposed to 100 μl) of cultured media so that the compound dilution is only 1:5 (instead of 1:50).
Daughter plates were prepared as follows.
Cultured media were prepared as follows. […] All plates were set at 37° C. overnight.
If controls were verified, values for all test compounds were reported.

As a reminder, the MIC is the smallest concentration in the dilution series that meets the test's criterion for growth inhibition. Read a low MIC as inhibition by little substance. Regarding `C[C@@H]1[C@H](O)[C@@H](C)/C=C/C=C/C=C/C=C/C=C/C=C/C=C/[C@H](O[C@@H]2O[C@H](C)[C@@H](O)[C@H](N)[C@@H]2O)C[C@@H]2O[C@](O)(C[C@@H](O)C[C@@H](O)[C@H](O)CC[C@@H](O)C[C@@H](O)CC(=O)O[C@H]1C)C[C@H](O)[C@H]2C(=O)O` [Amphotericin B], the MIC was determined as 4.0 µg/mL (≈ 4.33 µM).
